# Screening data, single-dose tests

By UniProt entry, the sequences of proteins in these tests, tags left out. Residues count along the entry.
UniProt P9WPC5, whole entry: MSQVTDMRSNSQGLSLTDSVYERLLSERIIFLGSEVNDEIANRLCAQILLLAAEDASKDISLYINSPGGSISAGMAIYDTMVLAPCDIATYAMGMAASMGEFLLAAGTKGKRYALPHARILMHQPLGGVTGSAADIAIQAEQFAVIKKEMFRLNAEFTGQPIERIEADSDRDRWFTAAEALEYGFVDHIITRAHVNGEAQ
UniProt P9WPC3, whole entry partner: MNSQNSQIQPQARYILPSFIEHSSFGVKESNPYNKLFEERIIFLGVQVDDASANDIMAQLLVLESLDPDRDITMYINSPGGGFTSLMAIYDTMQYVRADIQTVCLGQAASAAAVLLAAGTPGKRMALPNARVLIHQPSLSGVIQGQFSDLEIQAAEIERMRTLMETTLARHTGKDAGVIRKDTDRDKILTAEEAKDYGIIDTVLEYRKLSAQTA
UniProt P9WFT3, whole entry: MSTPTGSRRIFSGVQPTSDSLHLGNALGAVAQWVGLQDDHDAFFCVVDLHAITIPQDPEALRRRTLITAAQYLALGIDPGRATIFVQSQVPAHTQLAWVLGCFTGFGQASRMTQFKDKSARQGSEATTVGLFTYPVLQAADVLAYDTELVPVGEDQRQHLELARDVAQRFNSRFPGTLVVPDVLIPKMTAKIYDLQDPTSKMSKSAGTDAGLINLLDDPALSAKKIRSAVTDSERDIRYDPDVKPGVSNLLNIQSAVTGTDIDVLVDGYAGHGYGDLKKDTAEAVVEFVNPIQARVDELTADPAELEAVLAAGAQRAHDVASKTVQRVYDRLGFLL
UniProt Q8IDJ8, 1-583: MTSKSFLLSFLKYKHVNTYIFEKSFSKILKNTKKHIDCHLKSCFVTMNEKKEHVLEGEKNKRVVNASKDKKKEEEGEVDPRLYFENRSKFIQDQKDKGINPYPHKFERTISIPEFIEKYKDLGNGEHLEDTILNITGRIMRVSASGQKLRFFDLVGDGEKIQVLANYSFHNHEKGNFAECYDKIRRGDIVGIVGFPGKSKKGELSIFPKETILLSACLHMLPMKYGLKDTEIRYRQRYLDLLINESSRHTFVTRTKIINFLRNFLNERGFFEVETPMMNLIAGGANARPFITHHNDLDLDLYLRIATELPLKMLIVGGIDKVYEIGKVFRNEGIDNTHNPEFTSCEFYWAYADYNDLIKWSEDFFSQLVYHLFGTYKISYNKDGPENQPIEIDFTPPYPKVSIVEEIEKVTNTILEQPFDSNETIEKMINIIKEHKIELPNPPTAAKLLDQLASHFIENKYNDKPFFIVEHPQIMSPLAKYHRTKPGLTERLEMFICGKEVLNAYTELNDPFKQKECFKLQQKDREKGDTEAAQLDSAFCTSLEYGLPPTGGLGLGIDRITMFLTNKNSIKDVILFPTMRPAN

A: 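ClpP1P2, Mycobacterium tuberculosis (UniProt P9WPC5 and UniProt P9WPC3). Protease assay of ClpP1P2, read by the AMC dye that it sets free. Tested at 50 µM. Direction is inferred from only a few compounds that gave an IC50; most scored high, so higher reads as stronger inhibition. Most other retested compounds had strongly negative values. Size under these conditions: about 69,000 compounds, about 10 of them at 50% or above in at least one test.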
B: 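Tryptophan-tRNA ligase, Mycobacterium tuberculosis (UniProt P9WFT3). Enzyme assay of tryptophanyl-tRNA synthetase; the read-out is not stated. Tested at 10 µM. Higher most likely means stronger inhibition; the record gives no direction and few retests gave an IC50. About 65,000 compounds were tested under these conditions; 0.098% (about 64) showed 50% or more at least once.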
C: 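Enzyme assay of the cytosolic lysyl-tRNA synthetase in 384-well plates, read by luminescence. Target: Lysine-tRNA ligase, Plasmodium falciparum 3D7 (UniProt Q8IDJ8). Tested at 30 µM. Higher reads as stronger inhibition, judged from the few compounds that gave an IC50. Size under these conditions: about 69,000 compounds, about 49 of them at 50% or above in at least one test.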

The filed quantity is “Percent Effect” (%). How 0% and 100% were set is not recorded. Most values in the screen are low, and negative values occur. Compounds were drawn at random from those tested, without regard to their results. A dash means the value is not listed here; it may have been measured.

| structure | A | B | C |
|---|---|---|---|
| `Cn1c(CN2CCCCC2)nnc1C1CCCN(C(=O)CCC(N)=O)C1` (stereo not drawn) | 4.749 | -2.187 | 8.92 |
| `Cc1nc(O)c2nnn(C[C@H]3CCCN3C(=O)CCC3CCCC3)c2n1` | -0.7468 | -5.602 | -4.983 |
| `Cn1c(SCC(O)COCc2ccc(Cl)cc2)nnc1C1CC1` (stereo not drawn) | -9.824 | 1.342 | -1.193 |
| `COc1ccc(-n2ccc(C(=O)N(C)C(C)C3(C)CC3)n2)cc1` (stereo not drawn) | -3.972 | 5.503 | -0.01168 |
| `COCC1CN(CC2CC2)Cc2nccn2C1` (stereo not drawn) | 1.23 | -0.07639 | 3.155 |
| `CC1CN(C(=O)c2ccn(-c3cccc(Cl)c3)n2)CCO1` (stereo not drawn) | 5.679 | 1.839 | 7.408 |
| `Cc1cnn(CC2CCCN2C(=O)c2ccccc2-n2cccn2)c1` (stereo not drawn) | -1.7 | -2.13 | -0.3582 |
| `CCC(CN1CCOCC1)n1cncc1-c1ccc2c(c1)CCCN2C` (stereo not drawn) | -16.53 | -2.171 | 3.319 |
| `CC[C@@H]1N(Cc2ccsc2)CCC[C@]12CCC(=O)N2C` | 4.819 | -2.061 | -8.518 |
| `COCCNC(=O)c1ccccc1-n1cc(CN)cn1` | -0.8395 | - | 0.3271 |
| `O=C(c1ccc(O)nc1)N1CCc2ccc(O)cc2C1` | -1.583 | -0.6623 | 2.695 |
| `CCCSCC(=O)N1CCCC(CO)(CCC)C1` (stereo not drawn) | -7.595 | -0.153 | 2.629 |
| `CC(C)(C)c1ncc(C(=O)NCCNC(=O)c2ccccc2)s1` | 6.165 | -1.852 | 4.237 |
| `OCC1CCCN(Cc2c(C3CCCC3)[nH]c3ncccc23)C1` (stereo not drawn) | 22.06 | - | 2.53 |
| `CN1CCOC[C@H]1c1nc(-c2ccccc2)c[nH]1` | -7.718 | 1.13 | 8.085 |
| `CC(C)CN(Cc1ccc(O)c(C(=O)O)c1)Cc1cnn(C)c1` | 2.004 | -0.2018 | 0.6416 |
| `COc1ccccc1-c1cc(NC(=O)CCC2CCCO2)[nH]n1` (stereo not drawn) | 12.59 | -3.091 | 3.133 |
| `COc1cc(-c2n[nH]c(CCN)n2)cc(OC)c1OC` | 17.34 | -0.8414 | -1.647 |
| `CCN1CCn2c(C)cnc2C12CCN(C(=O)c1ccc(Cl)cc1)CC2` | -6.385 | -3.673 | -1.922 |
| `O=C(Nc1cc(CCC2CCN(CCO)CC2)ccn1)c1ccccn1` | 43.87 | 11.06 | -3.514 |
| `CC(c1cccc(S(N)(=O)=O)c1)N(C)CCOC(C)(C)C` (stereo not drawn) | -11.53 | 1.42 | 0.7235 |
| `CN1CCC(NC(=O)Nc2cnn(-c3ccccc3Cl)c2)C1=O` (stereo not drawn) | -6.362 | -0.2154 | 0.7686 |
| `CCS(=O)(=O)N1CCc2c(COC)cncc2C1` | -4.918 | - | -1.334 |
| `COc1c(CNC2CCN(c3ncccn3)CC2)c(C)nn1C` | -38.96 | -5.062 | 0.9657 |
| `COc1ccccc1CCNC(=O)NC(C)COCC(F)(F)F` (stereo not drawn) | 0.9674 | -0.1833 | -1.719 |
| `Cc1cc(C)n(CC2CN(CCc3ccncc3)CCO2)n1` (stereo not drawn) | -10.98 | -2.271 | 1.755 |
| `COCCCNC(=O)CN(C)C(=O)c1cc(C)ccc1N(C)C(C)C` | 4.674 | -4.373 | 3.687 |
| `CSc1nccn1-c1cccc(C(=O)NCCCN2CCOCC2)c1` | 12.37 | -1.072 | -0.6703 |
| `Cc1ccccc1CC1(C(=O)O)CCCN(c2ncnc3[nH]ccc23)C1` (stereo not drawn) | 9.318 | 1.586 | 4.335 |
| `Cn1ccnc1CN1CCCC1c1noc(C2CC2)n1` (stereo not drawn) | 6.127 | -3.294 | 2.907 |
| `Cc1cn2c(n1)C(CNCC1=Cc3ccccc3OC1)CCC2` (stereo not drawn) | -10.76 | 0.3799 | 0.7678 |
| `CNC(=O)[C@@H](c1ccccc1F)N1CCC[C@H]1C(=O)NC1CC1` | -2.56 | -4.554 | 4.805 |
| `Cc1n[nH]c(C2CN(C(=O)c3ccoc3C)CCO2)n1` (stereo not drawn) | -20.66 | 1.053 | 2.272 |
| `CS(=O)(=O)N1CCO[C@H]2[C@@H](Oc3ncccc3F)CC[C@@H]21` | 1.634 | 2.205 | 1.156 |
| `CN(C(=O)c1ncn2c1CN(C)S(=O)(=O)c1ccccc1-2)C1CC1` | 20.29 | 4.888 | -0.2868 |
| `CN1CCCC(c2cccc(-c3cccc(Cl)c3)n2)C1` (stereo not drawn) | -10.9 | 14.62 | -1.831 |
| `Cn1cccc1C(=O)N1CCCN(CCCc2ccccc2)CC1` | 0.296 | 5.674 | 4.539 |
| `Cc1ccc(C(=O)N2CCc3ncnc(C)c3CC2)cn1` | -13.84 | 2.517 | 3.988 |
| `Cc1ccc(CN2Cc3nccn3CC(CN(C)C)C2)s1` (stereo not drawn) | 4.487 | 2.368 | 5.125 |
| `O=C(CN(C1=NCCCC1)c1ccccc1)c1ccccc1` | 4.199 | 2.013 | -9.6 |
| `N#Cc1c(N2CCOCC2)nsc1-c1cccnc1` | -8.993 | -1.117 | 4.655 |
| `COc1ccc(CCNC(=O)CN2CCOCS2(=O)=O)cc1` | -6.55 | -0.6173 | 1.725 |
| `CN(C)CCC1CN(C(=O)c2cccc3c2OCC3)CCO1` (stereo not drawn) | 40.47 | 22.16 | -10.72 |
| `COCCn1cc(C(=O)NC2CCS(=O)(=O)C2)c2ccccc2c1=O` (stereo not drawn) | -0.5247 | 0.9709 | 1.808 |
| `O=C(N[C@@H]1CC[C@@H](N2CCOCC2)[C@@H]1O)c1cnn2cccnc12` | -1.163 | 7.246 | 2.942 |
| `CN1CCN(C(=O)c2ncn3c2CNS(=O)(=O)c2ccccc2-3)CC1` | 0.8566 | -0.4937 | 5.749 |
| `CCOCCCNc1cc(C)nn2cnnc12` | 13.21 | 1.425 | -6.055 |
| `CC(C)CNC(=O)CNc1c(NCc2ccccn2)c(=O)c1=O` | -12.99 | -2.305 | 9.04 |
| `O=C(O)c1cc2c(c(S(=O)(=O)N(CCCO)c3ccccc3)c1)CCC2` | -1.639 | 4.128 | 0.9194 |
| `CCC(=O)N1CCC2(CC1)c1nc[nH]c1CCN2S(C)(=O)=O` | 2.144 | -4.171 | 4.561 |
| `CCN(CC)S(=O)(=O)N(Cc1ccccn1)Cc1ccccc1C` | 25.93 | 35.77 | -4.229 |
| `COc1cccc(-c2ncc(CN3C[C@@H]4CC[C@H](C3)N(C)C4=O)s2)c1` | -5.944 | -4.747 | -4.125 |
| `CN(C)[C@@H]1C[C@@H](CO)N(C(=O)Nc2ccc(SC(F)(F)F)cc2)C1` | 8.882 | 0.7322 | 11.62 |
| `CSCCN1C(=O)CC(C)(c2ccc(Br)cc2)C1=O` (stereo not drawn) | -13.25 | 0.1792 | 5.338 |
| `CCc1nccn1C1CCCN(C(=O)Cc2n[nH]c3ccccc23)C1` (stereo not drawn) | 3.091 | -1.072 | 4.355 |
| `O=C(CN1CCCCC1)NCc1cccnc1-n1cnc2ccccc21` | -7.12 | 1.458 | 5.679 |
| `Cc1noc(C)c1CN1CC2(CCCCN2c2cncnc2)CC1=O` (stereo not drawn) | 12.33 | -1.198 | -0.256 |
| `O=C(CCCc1nc2ccccc2[nH]1)N1CCCC(n2cccn2)C1` (stereo not drawn) | 8.082 | -0.3145 | 7.749 |
| `Cc1cnc(C)c(-c2cccc(-c3ccn(CCN4CCCC4)n3)c2)n1` | -11.06 | 9.411 | -1.079 |
| `Cc1nn(CCc2nnc(NCC(C)C)s2)c(C)c1Br` | -4.967 | -1.06 | 1.006 |
| `CCNC(=O)N1C[C@@H]2OCC(=O)N(CC3CCCCC3)[C@@H]2C1` | 5.804 | 0.9916 | 7.406 |
| `CN1CC2(CCN(C(=O)CCc3nc4cccnc4n3C)C2)OC1=O` (stereo not drawn) | 6.884 | -2.074 | -1.351 |
| `O=C(NC[C@]12COC[C@H]1CN(Cc1nccs1)C2)c1cscn1` | 2.679 | 0.6916 | 3.402 |

The first 4 entries again:

{"structure": "Cn1c(CN2CCCCC2)nnc1C1CCCN(C(=O)CCC(N)=O)C1", "stereo": "stereo not drawn", "A": 4.749, "B": -2.187, "C": 8.92}
{"structure": "Cc1nc(O)c2nnn(C[C@H]3CCCN3C(=O)CCC3CCCC3)c2n1", "A": -0.7468, "B": -5.602, "C": -4.983}
{"structure": "Cn1c(SCC(O)COCc2ccc(Cl)cc2)nnc1C1CC1", "stereo": "stereo not drawn", "A": -9.824, "B": 1.342, "C": -1.193}
{"structure": "COc1ccc(-n2ccc(C(=O)N(C)C(C)C3(C)CC3)n2)cc1", "stereo": "stereo not drawn", "A": -3.972, "B": 5.503, "C": -0.01168}

Measurements from “University of Dundee, Small-Polar-MMV Screening Library” (2021), ChEMBL document CHEMBL3988442.